Experimental data from paper PMC8390754, “Engineering and functional characterization of a proton-driven β-lactam antibiotic translocation module for bionanotechnological applications” (Scientific Reports, 2021).

Amino acid sequences for entries named in this document (tags omitted).
UniProt A0A2R9TD79, whole entry F311Y/K314A: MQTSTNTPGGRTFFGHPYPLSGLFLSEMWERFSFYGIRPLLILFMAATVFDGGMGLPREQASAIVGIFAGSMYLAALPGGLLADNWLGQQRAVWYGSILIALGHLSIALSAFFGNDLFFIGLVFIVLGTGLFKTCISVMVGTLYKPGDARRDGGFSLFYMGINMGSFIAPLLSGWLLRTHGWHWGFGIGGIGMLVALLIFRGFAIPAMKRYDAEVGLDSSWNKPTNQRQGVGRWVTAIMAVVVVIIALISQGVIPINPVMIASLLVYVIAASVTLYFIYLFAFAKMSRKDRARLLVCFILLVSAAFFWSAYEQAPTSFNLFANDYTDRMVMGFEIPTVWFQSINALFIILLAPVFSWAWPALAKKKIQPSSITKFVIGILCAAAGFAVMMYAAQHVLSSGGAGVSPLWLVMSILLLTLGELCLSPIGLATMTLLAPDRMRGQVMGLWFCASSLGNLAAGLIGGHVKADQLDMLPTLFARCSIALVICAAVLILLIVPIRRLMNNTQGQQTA

Target: T1, YePEPT (Yersinia enterocolitica, UniProt A0A2R9TD79, F311Y/K314A)
T1 construct: gene YEP4_02370

SMILES: CC1=C(C(=O)O)N2C(=O)[C@@H](NC(=O)[C@H](N)c3ccccc3)[C@H]2SC1 [compound 5, cefalexin]
- [3H]Ala-Ala uptake competition in E. coli at 5 mM (no transport seen by SSM elec): increased inhibition by all four β-lactam antibiotics containing an α-amino group (i.e., ampicillin, amoxicillin, cefalexin and cefadroxil)
